# In patent publication EP4578874A1 (SunRock Biopharma S.L., dated 2025):
# Results are given in words; binding and its absence hold for the method and conditions named. Some entries that bind do so weakly or less than the wild type.
# T1: CCR9 N-terminal peptide 1 (TPTDFTSPIPNMADDYGSESTSS) (human, biotinylated in the ELISA of Example 2 (site not stated))
# T1 construct: Biotin is stated for the ELISA; also called N-terminal 1; biotinylated peptide from the N-terminal region of huCCR9
# T1 peptide: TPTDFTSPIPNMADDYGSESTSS
# T2: N-terminal 6 (…) (human)
# T2 sequence (peptide): SPIPNMADDYG
# T3: human CCR9 (C-C chemokine receptor type 9) (human) (UniProt P51686)
# T3 sequence: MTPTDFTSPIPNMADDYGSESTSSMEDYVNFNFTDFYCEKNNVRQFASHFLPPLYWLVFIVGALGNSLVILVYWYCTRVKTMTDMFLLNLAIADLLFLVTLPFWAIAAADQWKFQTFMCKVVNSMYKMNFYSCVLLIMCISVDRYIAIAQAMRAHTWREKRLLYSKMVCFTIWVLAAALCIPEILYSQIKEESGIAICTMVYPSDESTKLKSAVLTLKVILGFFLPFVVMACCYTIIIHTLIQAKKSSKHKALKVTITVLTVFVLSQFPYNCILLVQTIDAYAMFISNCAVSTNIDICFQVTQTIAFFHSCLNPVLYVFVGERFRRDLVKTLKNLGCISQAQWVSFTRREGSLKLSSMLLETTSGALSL
# T4: hCCR9 peptide I10A-P11A (human)
# T4 sequence (peptide): TDFTSPAANMADDYGSEST
# T5: hCCR9 peptide Y17A-G18A (human)
# T5 sequence (peptide): TDFTSPIPNMADDAASEST
# Columns and labels:
# [1] = molecular target: T1, CCR9 N-terminal peptide 1 …; experiment: peptide inhibition: 1 µg/mL antibody pre-incubated with 100 µg/mL peptide, then binding to MOLT-4 cells by flow cytometry
# N-terminal 6 (…) (human) = molecular target: T2, N-terminal 6 (…) (human); experiment: as above
# [2] = molecular target: T3, human CCR9 (C-C chemokine receptor type 9) (human); experiment: flow cytometry on MOLT-4 cells, pHrodo-labeled antibody batches
# [3] = molecular target: T3, human CCR9 (C-C chemokine receptor type 9) (human); experiment: flow cytometry on MOLT-4 cells, pHrodo-labeled antibodies
# [4] = molecular target: T3, human CCR9 (C-C chemokine receptor type 9) (human); experiment: screen of murine hybridoma antibodies for affinity to CCR9 (ELISA, then flow cytometry); format not detailed
# [5] = molecular target: T4, hCCR9 peptide I10A-P11A (human); experiment: 2 x Ala-scan with substituted hCCR9 peptides (Fig. 9A)
# [6] = molecular target: T5, hCCR9 peptide Y17A-G18A (human); experiment: 2 x Ala-scan with substituted hCCR9 peptides (Fig. 9B)
# [7] = molecular target: T4, hCCR9 peptide I10A-P11A (human); experiment: as above
binding [2],binding [3],binding [4],Binder,other results
–,–,–,"SRB1 (antibody, V domains shown, Detected with anti-human Fc, so it has a human Fc; also called humanised version of the antibody 92R; positive control) VH: EVQLVESGGGLVKPGGSLRLSCAASGFTFSKFWMNWVRQAPGKGLEWVGEIRLKSNNYATHYAESVKGRFTISRDDSKNTLYLQMNSLKTEDTAVYYCTSDGWFAYWGQGTLVTVSS VL: DVQMTQSPSSLSASVGDRVTITCRSSQSLVHSNGNTYLNWYQQKPGKAPKLLIYKVSNRFSGVPSRFSGSGSGTDFTLTISSLQPEDFATYYCSQSTHFPRTFGGGTKVEIKR",binding [1]: binds; binding (N-terminal 6 (…) (human)): binds
binds,binds,–,"huC9Mab16-VL2 pHrodo (antibody, V domains shown, pHrodo fluorophore label (sites not given), also called pHrodo-labeled huC9Mab16-VL2) VH: EVQLVESGGGLVKPGGSLRLSCAASGFTFSDYWMNWVRQAPGKGLEWVGEIRSKSKNYATHYEESVRGRFTISRDDSKNTLYLQMNSLKTEDTAVYYCMFFYSPYWGQGTLVTVSS VL: DVVMTQSPSSLSASVGDRVTITCRSSQSLVHSNGITFLHWYQQKPGKAPKLLIYKVSNRFSGVPSRFSGSGSGTDFTLTISSLQPEDFATYYCSQTTHVPWTFGGGTKVEIK",–
binds,binds,–,"huC9Mab19-VL2 pHrodo (antibody, V domains shown, pHrodo fluorophore label (sites not given), also called pHrodo-labeled huC9Mab19-VL2) VH: EVQLVESGGGLVKPGGSLRLSCAASGFTFSNYWMDWVRQAPGKGLEWVGEIRSKSNNYATHYAESMKGRFTISRDDSKNTLYLQMNSLKTEDTAVYYCAFYYSPYWGQGTLVTVSS VL: DVVMTQSPSSLSASVGDRVTITCRSSQSLLHSNGNTFLHWYQQKPGKAPKLLIYKVSNRFSGVPSRFSGSGSGTDFTLTISSLQPEDFATYYCSQTTHLPWTFGGGTKVEIK",–
–,–,binds,"C9Mab-16 (antibody, V domains shown, Murine parental antibody from hybridoma; also called C9M16; clone 16) VH: EVKLEESGGGLVLPGGSMKLSCVASGFTFSDYWMNWVRQSPEKGLEWVAEIRSKSKNYATHYEESVRGRCTISRDDSKSSVYLQMNNLRAEDTGIYFCMFFYSPYWGQGTLVTVSA VL: DVVMTQTPLSLPVSLGDQASISCRSSQSLVHSNGITFLHWYLQKPGQSPKLLIYKVSNRFSGVPDRFSGSGSGTDFTLKISRVEAEDLGVYFCSQTTHVPWTFGGGTKLEIKR",binding [5]: binds
–,–,binds,"C9Mab-19 (antibody, V domains shown, Murine parental antibody from hybridoma; also called C9M19; clone 19) VH: EVKLEESGGGLVQPGGSMKLSCVASGFTFSNYWMDWVRQSPEKGLEWVAEIRSKSNNYATHYAESMKGRFTISRDDSKSSVYLQMINLRTEDTGIYYCAFYYSPYWGQGTLVTVSA VL: DVVMTQTPLSLPVSLGDQASISCRSSQSLLHSNGNTFLHWYLQKPGQSPKLLIYKVSNRFSGVPDRFSGSGSGTDFTLKVSRVEAEDLGVYFCSQTTHLPWTFGGGTKLEIKR",binding [6]: binds; binding [7]: binds
